Measured values published in PubChem BioAssay AID540256 (National Center for Advancing Translational Sciences (NCATS), 2011).
About 3,700 (1.2%) of roughly 300,000 compounds were called active. Inconclusive results, whose numbers are uncertain, are shown with a selection of clear calls. The call rests on the fitted dose curve; tested in HEK293 cells. Where the call is inconclusive, the potency comes from a doubtful curve fit.

Assay: qHTS for Inhibitors of binding or entry into cells for Lassa Virus; further: nearly all actives have a fitted effect of over 50% in size
Conditions: Lassa virus pseudotype entry inhibition, cell reporter; series mostly up to 37.9 µM
Potency means the concentration at half of the fitted maximal effect.

Compound | Potency
Cc1ccc2nc(C)cc(SCC(=O)N/N=C/c3ccco3)c2c1 | inconclusive: 35.5 µM [inhibitor, single point]
CC1CCCCC1NC(=O)NC(=O)CCl (stereo unspecified) | inconclusive: 10 µM [inhibitor, partial curve]
O=C1CCCc2nc(N3CCN(c4ccccc4)CC3)ncc21 | inconclusive: 18.3 µM [activator, single point]
CCOC(=O)c1ccc(NC(=O)c2oc3c(c2C)-c2nn(Cc4ccccc4Cl)cc2CC3)cc1 | inactive
CCSc1nnc(NC(=O)[C@@H](NC(=O)c2ccc(C(C)(C)C)cc2)C(C)C)s1 | inactive
CCOC(=O)N1CCN(Cc2nc(CC3CC3)no2)CC1 | inactive
N#Cc1ccc(Oc2ncccn2)cc1 | inactive
CC(C)(C)c1ccc(-c2nnc(SC3CCOC3=O)n2Cc2ccccc2)cc1 (stereo unspecified) | inconclusive: 7.31 µM [inhibitor, partial curve, poor fit]
O=C(CSc1oc(-c2ccc(F)cc2)nc1S(=O)(=O)c1ccccc1)NC1CCCCC1 | inconclusive: 1.12 µM [inhibitor, partial curve, poor fit]
COc1cc2c(cc1NC(=O)c1ccccc1C)n(C)c(=O)n2C | inconclusive: 0.631 µM [inhibitor, full curve, poor fit]
O=C(Nc1ccc(-c2nc3cccnc3s2)cc1)c1cccnc1Cl | active: 3.55 µM
O=C(NCC1CCCO1)c1ccc(NC(=O)C2CCCCC2C(=O)O)cc1 (stereo unspecified) | inactive
CC(C)(C)c1ccc(NC(=O)CCNC(=O)c2ccco2)cc1 | inactive
O=C(Nc1ccccc1Br)c1cc(CN2CCCC2)on1 | inconclusive: 11.2 µM [activator, partial curve, poor fit]
O=C(O)[C@H]1CCCC[C@H]1C(=O)NCCc1ccccc1 | inconclusive: 23.1 µM [activator, partial curve, poor fit]
COc1ccc(S(=O)(=O)N2CCCC(C(=O)NC3CC3)C2)cc1OC (stereo unspecified) | inactive
Cc1nc2cc(-c3cccc(F)c3)nn2c(C)c1CCC(=O)NC(C)c1ccccc1 (stereo unspecified) | inactive
N#CCC(=O)N/N=C/c1cn(Cc2ccc(Cl)c(Cl)c2)c2ccccc12 | inconclusive: 11.2 µM [inhibitor, partial curve, poor fit]
Cc1ccc(S(=O)(=O)NCCC(=O)OCC(=O)N(Cc2ccccc2)C(C)(C)C)cc1C | inconclusive: 15.8 µM [inhibitor, partial curve, poor fit]
NC(=O)c1c(NC(=O)CN2CCN(S(=O)(=O)c3ccccc3)CC2)sc2c1CCC2 | inconclusive: 1.12 µM [inhibitor, single point]
Nc1c(C(=O)NCc2ccco2)c2nc3ccccc3nc2n1CCc1ccccc1 | inconclusive: 29.1 µM [inhibitor, single point]
CC(C)c1ccc(CNC(=O)c2ccc(N3CCCC3)c(NC(=O)NCc3ccccc3)c2)cc1 | inconclusive: 10 µM [inhibitor, partial curve, poor fit]
O=S(=O)(NCc1cccnc1)c1cc(Cl)ccc1Cl | inconclusive: 0.259 µM [activator, full curve]
Cc1c(Br)c(=O)oc2c(Br)c(O)c(O)cc12 | inactive

Arranged by length of the SMILES (descending): four of the compounds above.
Compound | Potency
CCSc1nnc(NC(=O)[C@@H](NC(=O)c2ccc(C(C)(C)C)cc2)C(C)C)s1 | inactive
CC(C)(C)c1ccc(-c2nnc(SC3CCOC3=O)n2Cc2ccccc2)cc1 (stereo unspecified) | inconclusive: 7.31 µM [inhibitor, partial curve, poor fit]
COc1cc2c(cc1NC(=O)c1ccccc1C)n(C)c(=O)n2C | inconclusive: 0.631 µM [inhibitor, full curve, poor fit]
CCOC(=O)N1CCN(Cc2nc(CC3CC3)no2)CC1 | inactive

Following part:

Compound | Potency
COc1ccccc1NS(=O)(=O)c1cc(C(=O)N2CCN(C/C=C/c3ccccc3)CC2)ccc1C | inconclusive: 35.5 µM [inhibitor, single point]
Cc1cc2ccccc2c(=O)[nH]1 | inactive
Cc1ccc(NC(=O)Cn2nnc(C(=O)NCc3cccs3)c2N)cc1 | inconclusive: 2.31 µM [inhibitor, full curve, poor fit]
CCc1ccccc1-n1cnc2cc(C(=O)NC3CCCCCC3)ccc21 | inactive
CCOc1ccccc1N1CCN(C(=O)c2cc(-c3cccnc3)nc3c(Cl)cccc23)CC1 | inconclusive: 1.26 µM [activator, single point]
N#CCC(=O)N/N=C/c1ccc(N2N=C(c3ccccc3)CC2c2ccccc2)cc1 (stereo unspecified) | inactive
Cc1nn(-c2ccccc2)c(C)c1C(=O)NCCc1ccccc1 | inconclusive: 20 µM [inhibitor, partial curve, poor fit]
O=C(COc1ccc(Cl)cc1)N1CCN(Cc2ccccc2)CC1 | inconclusive: 29.1 µM [inhibitor, single point]
COc1ccc(NC(=O)c2c(Nc3ccccc3)sc(C(=O)c3ccc(F)cc3)c2N)cc1 | active: 12.6 µM
Cc1ccc(-n2c(SCC(=O)NCCN3C(=O)CSC3=O)nnc2-c2ccccc2F)cc1 | inactive
O=C(CSc1cccc(C(F)(F)F)c1)NC(=O)NCc1ccco1 | inconclusive: 9.2 µM [inhibitor, partial curve, poor fit]
Cc1ccc(NC(=O)c2cccc(S(=O)(=O)N(C)C3CCCCC3)c2)nc1 | inconclusive: 3.16 µM [inhibitor, partial curve, poor fit]
CC(/C=C/c1ccccc1)=N\Nc1nc(C)cc(C)n1 | inactive
O=C1CCCN1CN(C(=O)c1ccccc1)c1ccccc1 | inconclusive: 31.6 µM [activator, single point]
Cc1ccc2c(c1)NC(=O)c1cccnc1N2 | inconclusive: 3.16 µM [activator, partial curve]
CCOC(=O)c1cc2c(ccn2C)n1CC(=O)N(Cc1ccccc1)c1ccc(F)cc1 | inconclusive: 1.26 µM [inhibitor, single point]
C/C(=N\NC(=O)c1cccs1)c1ccc2ccccc2c1 | inactive
COc1ccc(OCC(=O)Nc2ccc(C)c(S(=O)(=O)N(C)C)c2)cc1 | inconclusive: 17.8 µM [inhibitor, partial curve, poor fit]
COc1ccc(/C=C/C(=O)c2ccc[nH]2)cc1OC | inconclusive: 3.26 µM [activator, full curve, poor fit]
COCCCNC(=O)c1c[nH]c2ccc(S(=O)(=O)N(C)c3ccccc3C)cc2c1=O | inconclusive: 35.5 µM [inhibitor, partial curve, poor fit]
Cc1ccccc1CC1SC(N)=NC1=O (stereo unspecified) | inconclusive: 35.5 µM [inhibitor, single point]
COc1ccc(C(c2sc3nc(C)nn3c2O)N2CCC3(CC2)OCCO3)cc1 (stereo unspecified) | inconclusive: 3.26 µM [activator, partial curve, poor fit]
C[Se]C[C@H](N)C(=O)O | inconclusive: 29.1 µM [inhibitor, partial curve, poor fit]
Cc1ccccc1NC(=O)Nc1cc(-c2ccccc2)nn1C | inconclusive: 1.26 µM [inhibitor, single point]

Compound | Potency
CC(C)Oc1ccc(CNC(=O)c2sc3ncccc3c2-n2cccc2)cc1 | inactive
Cc1cc(-c2ccc(S(=O)(=O)Nc3ccc(Cl)cc3)cc2)on1 | inactive
Cc1[nH]c2ccc(-c3nnc(SCC(=O)c4ccccc4F)o3)cc2c1C | active: 8.91 µM
CCc1nnc(NC(=O)CSc2nc3cccnc3n2C2CCCCC2)s1 | active: 5.62 µM
CCOc1ccc(C2c3c(oc4ccc(C)cc4c3=O)C(=O)N2CCCN(C)C)cc1OC (stereo unspecified) | inconclusive: 2.82 µM [inhibitor, partial curve, poor fit]
Cc1[nH]c2ccccc2c1C1(O)C(=O)N(Cc2ccccc2)c2ccc(Cl)cc21 (stereo unspecified) | inconclusive: 5.62 µM [inhibitor, full curve, poor fit]
CC(C)S(=O)(=O)c1ccc(C(=O)Nc2ccc(F)cc2F)cn1 | inactive
CN(CC#CCC(c1ccccc1)c1ccccc1)C(C)(C)C | inconclusive: 16.4 µM [inhibitor, partial curve]
COc1cccc(/C=N/NC(=O)c2c(-c3ccccc3)noc2C)c1OC | inactive
Cc1noc(C)c1COC(=O)c1cccnc1SCC(=O)Nc1ccc2c(c1)OCO2 | inactive
CSc1ncccc1C(=O)OCc1ccc(Br)cc1 | inconclusive: 0.562 µM [inhibitor, single point]
O=C(CN1C(=O)CSc2ccc(S(=O)(=O)N3CCCC3)cc21)NCc1ccccc1Cl | inactive
COc1cc(NC(=O)c2ccccc2C)c(OC)cc1NC(=O)CN1CCOCC1 | inconclusive: 10 µM [inhibitor, partial curve, poor fit]
Cn1cc(C(=O)O)c(-c2ccc3c(c2)OCCCO3)n1 | inactive
COc1ccc(-c2nnc(NC(=O)c3ccc(S(=O)(=O)N4CCCc5ccccc54)cc3)o2)cc1 | inconclusive: 2.82 µM [inhibitor, single point]
CC(=O)c1ccc(S(=O)(=O)N(CC(=O)NC2CC2)Cc2ccc(F)cc2)cc1 | inconclusive: 0.891 µM [activator, full curve, poor fit]
CSc1ccc(-c2nc3cccc(C)n3c2Nc2ccc3c(c2)OCO3)cc1 | inconclusive: 35.5 µM [inhibitor, single point]
O=C(CSc1cccc2cccnc12)N/N=C/c1ccc(F)cc1 | inactive
COc1ccc(-c2nnc(SC(C)C(=O)O)o2)cc1 (stereo unspecified) | inactive
NS(=O)(=O)c1ccc(N2N=C(c3ccc(Br)cc3)CC2c2ccc(F)cc2)cc1 (stereo unspecified) | active: 7.94 µM
Cc1cc(C)n(-c2nc(NCC3CCCO3)c3c4c(sc3n2)COC(C)(C)C4)n1 (stereo unspecified) | inconclusive: 20 µM [inhibitor, partial curve, poor fit]
COc1cc2c(cc1NC(=O)c1cccnc1)oc1ccccc12 | inconclusive: 5.62 µM [activator, single point]
COc1ncccc1C(=O)N1CCCC(C(=O)c2cccc(OC(C)C)c2)C1 (stereo unspecified) | inconclusive: 25.1 µM [inhibitor, single point]
